# Primary screen of a compound library

Mtb glucose medium: 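Growth of Mycobacterium tuberculosis over 3 days (7H9 medium with glucose and tyloxapol); the read-out is not stated. Compounds at 50 µM. The record gives no direction; compounds that gave an IC50 in retests scored well above the rest, so higher reads as more growth inhibition. About 69,000 compounds were tested under these conditions; 1.1% (about 760) showed 50% or more at least once.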
Mtb cholesterol medium: 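Growth of Mycobacterium tuberculosis over 4 days (cholesterol / DPPC medium with tyloxapol); the read-out is not stated. Concentration: 50 µM. Direction is inferred from retests: higher values go with more growth inhibition. Of about 69,000 compounds tested this way, about 370 (0.54%) reached 50% or more in at least one test.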

Each number is a percent effect as filed.
The controls that fix the scale are not given in the record; negative values are as filed.
Compounds were drawn at random from those tested, without regard to their results.
Two or more numbers in one place are separate tests of the same structure; such repeats can differ widely.
A dash means the value is not listed here; it may have been measured.

| # | Compound | Mtb glucose medium | Mtb cholesterol medium |
|---|---|---|---|
| 1 | `O=C(O)C(F)(F)F.[H][C@@]12COC[C@]1(COCC(=O)N(C)C)CN(C1CCCC1)C2` | 7.311% | 7.56% |
| 2 | `Cc1cc(C2CCCN2Cc2ccc(S(=O)(=O)N(C)C)o2)on1` (stereo not drawn) | -6.608% | 1.12% |
| 3 | `[H][C@]12CC[C@]([H])(CN(Cc3ccccc3)C1)N(Cc1cc(=O)[nH]c(=O)[nH]1)C2` | -11.6% | -14.17% |
| 4 | `c1cnn(-c2ccc(CN3CCOC(Cn4cncn4)C3)cc2)c1` (stereo not drawn) | 0.667% | 6.172% |
| 5 | `COCCN(C)CC(=O)N1C[C@@H](C)[C@](O)(C(C)C)C1` | -2.238% | -2.939% and -0.2632% |
| 6 | `O=C(NN1CCCc2ccccc21)c1c[nH]c(=O)[nH]1` | 0.3812% | 2.065% |
| 7 | `O=C(O)C(F)(F)F.[H][C@@]12CCN(Cc3ccoc3)C[C@@]1([H])O[C@H](C(=O)NC(C)C)C2` | 18.54% | -15.43% |
| 8 | `CC(C)CN1C(=O)C2(CCN(Cc3ccc(F)cc3)C2)c2ccccc21` (stereo not drawn) | 42.78% | 3.582% |
| 9 | `CC(C)c1cc(C(=O)N2CCN(Cc3ccsc3)CC2)n[nH]1` | 79.47% | 12.59% |
| 10 | `COc1ccc(F)cc1C(C(=O)O)N1CCSCC1` (stereo not drawn) | 32.83% | 12.28% |
| 11 | `CC(NC(=O)Nc1ccc(N2CCCC2)nc1)c1nncn1C` (stereo not drawn) | -49.78% | -34.13% |
| 12 | `CCc1nc(C2CCCN2C(=O)c2nccnc2N)no1` (stereo not drawn) | -10.44% | 4.346% |
| 13 | `CCn1cnnc1C1CCN(C(=O)c2cc(C)c(C)s2)CC1` | 1.041% and -53.61% | 11.44% |
| 14 | `COc1ccc(OC)c(C2CC(=O)Nc3nc(N4CCOCC4)sc32)c1` (stereo not drawn) | 56.53% | 20.17% |
| 15 | `Cc1cc(CN(C)C(=O)CC(C)C)no1` | -18.69% | 8.585% |
| 16 | `COCc1noc(CN2CCC3(CC2)[C@H](O)C[C@@H]3OC)n1` | -1.126% and -0.2505% | -0.04461% |
| 17 | `Cn1nccc1CNC(=O)Cn1nc(C(F)(F)F)cc1C1CC1` | -11.54% | -11.36% |
| 18 | `Cc1cc(N2CCOC(CN)C2)nc(-c2ccccc2)n1` (stereo not drawn) | 8.633% | 0.1446% |
| 19 | `Cc1nc(C2CCCNC2)cc(N(Cc2c(C)nn(C)c2C)C2CC2)n1` (stereo not drawn) | -28.23% | 0.5468% and 0.3142% |
| 20 | `Cc1nc2n(n1)CC(Nc1ccnc(-c3ccccc3)n1)CC2` (stereo not drawn) | 29.62% | 24.51% |
| 21 | `CC(C)(C)c1nnc(NCC(=O)N2CCc3sccc3C2)s1` | 6.711% and -21.66% | -1.231% |
| 22 | `Cc1ncc2c(n1)CN(C(C(N)=O)c1ccc(F)cc1)CC2` (stereo not drawn) | -30.72% | -15.7% |
| 23 | `O=S1(=O)NCC2(CCN(Cc3ccncc3)CC2)Oc2ncccc21` | -32.36% | -19.76% |
| 24 | `O=C(O)C(F)(F)F.O=C(O)C(F)(F)F.[H][C@]12CO[C@H](CN(C)Cc3ccco3)[C@@]1([H])CCN(c1ncc(F)cn1)C2` | -6.464% | -6.412% |
| 25 | `O=C(NC[C@H]1OC[C@@H](NCc2ccccc2F)[C@@H]1O)c1ccc(F)cc1` | 20.65% and -3.555% | 25.43% |
| 26 | `OC(COc1ccccc1)CN1CCN(c2nccs2)CC1` (stereo not drawn) | -7.413% | -0.04592% and -6.841% |
| 27 | `OC1(CNc2ccccc2)CCNCC1` | -1.864% and 10.64% | -15.63% |
| 28 | `CCc1ccc2c(c1)C(CCNC(=O)CCc1ccsc1)C(=O)N2` (stereo not drawn) | 9.925% | 15.86% |
| 29 | `[H][C@@]12CCN(Cc3nc(C)cs3)C[C@@]1([H])O[C@H](c1nnc(C)[nH]1)C2` | 5.984% | 13.62% |
| 30 | `CC(NCc1cccc(COC2CCCC2)c1)c1cnn(C)c1` (stereo not drawn) | -10.01% | 18.84% |
| 31 | `O=C(O)C(F)(F)F.O=S(=O)(Cc1ccccc1)N1CCCn2cnc(CN3CCCC3)c2C1` | -11.19% | 9.6% |
| 32 | `Cc1nn(C)cc1-c1cc(C(F)F)nc2sc(C(N)=O)c(N)c12` | -26.53% | 4.158% |
| 33 | `Cc1cc(C(=O)N2CCn3cc(CN4CCN(C)CC4)nc3C2)no1` | -41.51% | -9.352% and -24.26% |
| 34 | `CNCc1cn(C2CCN(C(=O)NCc3ccco3)CC2)nn1` | 16.82% and -1.088% | 8.19% |
| 35 | `CC(C)c1nnc(CN2CCc3ccc(S(N)(=O)=O)cc32)o1` | 9.492% | 1.738% |
| 36 | `Cc1cc2ncc(C(C)NCc3cccnc3)c(C)n2n1` (stereo not drawn) | 2.548% and 16.46% | 5.244% |
| 37 | `COC(=O)c1sc2cccc(F)c2c1CNC(=O)C1CCOC1` (stereo not drawn) | -8.565% | -8.116% |
| 38 | `CCN(CCN1CCCCCC1)C(=O)COc1cccnc1` | -24.4% | -19.62% |
| 39 | `CC(=O)N1CCN(Cc2ccc(F)cc2)CC2(CC(=O)N(C)C2)C1.O=C(O)C(F)(F)F` (stereo not drawn) | -48.86% | -4.574% and -21.73% |
| 40 | `O=c1n(CCNCc2ccc3ccccc3c2)nc2ccccn12` | -11.62% | 1.139% and -19.88% |
| 41 | `O=C(NCc1nnc2n1C(C(=O)NC1CC1)CC2)c1ccc(Cl)cc1Cl` (stereo not drawn) | 10.73% | -6.315% |
| 42 | `c1cnnc(N2CCCC2CNCc2cc[nH]n2)c1` (stereo not drawn) | 9.801% | 8.615% |
| 43 | `Nc1cccc(C2CN(C(=O)CN3CCOCC3)CCO2)n1` (stereo not drawn) | -20.6% | -7.34% |
| 44 | `Cc1cc(C)c(CNC(=O)N2CCCN(C(=O)C(C)C)CC2)c(C)c1` | 3.176% | 0.000162% |
| 45 | `[H][C@@]12CS(=O)(=O)C[C@]1([H])N(Cc1nc3ccccc3[nH]1)CCN2CC1CC1` | 2.141% and 6.271% | -3.586% and -0.1355% |
| 46 | `O=C(COc1ccc(-n2cccn2)nn1)N1CCCC1` | 16.58% | 7.263% |
| 47 | `CC(=O)N1CCC(CCNC(C)Cc2ccc(F)cc2)CC1` (stereo not drawn) | -3.247% | 3.497% |
| 48 | `CCC(=O)c1ccc(Br)cc1NN1c2cc(Br)ccc2C(=O)C1(C)OC` (stereo not drawn) | -11% | -5.539% |
| 49 | `CCC(NC(=O)CC1CCN(CC)CC1)c1cn2cccnc2n1` (stereo not drawn) | 33.99% | -14.43% and -11.55% |
| 50 | `Cc1cc(C(=O)N2CCCC(O)(CN3CCCC3)C2)ccc1Cl` (stereo not drawn) | 15.49% | -11.72% |
| 51 | `[H][C@@]12COC[C@]1(COc1nccc(C)n1)CN(C(=O)c1cnccn1)C2` | -19.67% | -29.9% |
| 52 | `CC(=O)N1CCC(Cc2ccc(-c3ccnn3C)nc2)CC1` | 14.16% | -0.03211% and -9.327% |
| 53 | `CC(=O)N1CCCC2(C1)CN(C(=O)Cc1ccccc1)CCO2` (stereo not drawn) | -34.72% | -5.503% and 13.44% |
| 54 | `O=C(O)C(F)(F)F.[H][C@]12CCN(Cc3ccccn3)C[C@@]1([H])OCCN(C(=O)c1ccsc1)C2` | 2.814% and 5.572% | -4.654% |
| 55 | `CN(C)CCOCc1nnc2n1CCN(Cc1ccc(F)cc1)CC2.O=C(O)C(F)(F)F.O=C(O)C(F)(F)F` | -24.56% | 12.47% |
| 56 | `CCc1nc(CN(C)C2CCN(CCC(=O)N3CCCCC3)C2)no1` (stereo not drawn) | 95.22% | -16.48% |
| 57 | `CCc1n[nH]c(C2CN(Cc3nnc(C4CC4)o3)CCO2)n1` (stereo not drawn) | -4.956% | -19.08% |
| 58 | `[H][C@@]12CCCO[C@]1([H])[C@H](NC(=O)c1cscn1)CN2c1ncccn1` | -48.24% | -3.331% |
| 59 | `Cc1nc(C2CN(C)CCO2)cc(N2CCC(CO)CC2)n1` (stereo not drawn) | 1.347% | -7.221% |
| 60 | `Cc1cc(Br)ccc1C(=O)Nc1c(C(N)=O)n[nH]c1C` | 4.544% | 5.555% |
| 61 | `O=C(CCc1nc2cccnc2[nH]1)NCc1ccncc1` | 12.29% | 2.861% |
| 62 | `COCC1CN(C(=O)c2cccn2C)Cc2c1cnn2CC1CC1.O=C(O)C(F)(F)F` (stereo not drawn) | 27.42% and 2.291% | -3.499% and 5.246% |
| 63 | `CCC(=O)N1CCC2(CC1)CNC(=O)c1cc(C)ccc1O2` | 9.494% | -15.58% |
| 64 | `Cc1ccc2nc(CN(C)Cc3[nH]nc4c3CCC4)[nH]c2c1C` | 27.73% | 4.164% |
| 65 | `Cc1nc(CN(C)C(=O)NC(C)c2ccc3c(c2)OCCO3)cs1` (stereo not drawn) | -29.61% | -46.13% |
| 66 | `CS(=O)(=O)CCc1ncnn1-c1ccc(F)c(Cl)c1` | -3.196% | 1.857% |
| 67 | `CCn1ncc2c1CCCC2NCc1cc(C)ccc1OC` (stereo not drawn) | -9.474% | 4.637% |
| 68 | `COc1ccc2c(c1)C(C(=O)NCCN1CCOC1=O)CC(=O)N2` (stereo not drawn) | -1.048% | -18.8% |
| 69 | `O=c1[nH]nc(C2CC2)n1-c1cccc(Cl)c1` | 1.858% and -17.61% | -12.68% |
| 70 | `CC(C)Cc1nc(CN2CCc3onc(-c4cccc(F)c4)c3C2)no1` | - | -50.71% |
| 71 | `[H][C@]12CCCN(c3ncc(C)cn3)[C@@]1([H])CN(C(C)=O)C2` | -4.953% and 1.982% | 2.161% |
| 72 | `N#Cc1cnn(-c2ccc(C(=O)Nc3ccccn3)cc2)c1N` | -6.603% | -15.35% |

Once more, the final 6:

| Compound | Mtb glucose medium | Mtb cholesterol medium |
|---|---|---|
| `CCn1ncc2c1CCCC2NCc1cc(C)ccc1OC` (stereo not drawn) | -9.474% | 4.637% |
| `COc1ccc2c(c1)C(C(=O)NCCN1CCOC1=O)CC(=O)N2` (stereo not drawn) | -1.048% | -18.8% |
| `O=c1[nH]nc(C2CC2)n1-c1cccc(Cl)c1` | 1.858% and -17.61% | -12.68% |
| `CC(C)Cc1nc(CN2CCc3onc(-c4cccc(F)c4)c3C2)no1` | - | -50.71% |
| `[H][C@]12CCCN(c3ncc(C)cn3)[C@@]1([H])CN(C(C)=O)C2` | -4.953% and 1.982% | 2.161% |
| `N#Cc1cnn(-c2ccc(C(=O)Nc3ccccn3)cc2)c1N` | -6.603% | -15.35% |

From ChEMBL document CHEMBL3988442, “University of Dundee, Small-Polar-MMV Screening Library” (2021).